US12485119B2, “Methods of treating pulmonary arterial hypertension” (ACTELION PHARMACEUTICALS LTD, priority 2019, dated 2025)

System: newly diagnosed, treatment-naïve subjects with PAH
Assay: Exposure to study treatments, individual maintenance dose and maximum tolerated dose
Format: in vivo, human
Conditions: up to EOMOP, Safety Set
Method: The starting dose of double-blind selexipag or placebo on Day 15±3 is 200 μg twice daily (in the morning and in the evening). The dose is up-titrated in increments of 200 μg twice daily, usually at weekly intervals (see Table 1), until either a maximum dose of 1600 μg twice daily is reached or adverse pharmacological effects that cannot be tolerated or medically managed are experienced, whichever is first. In the event of adverse effects typical of prostanoid therapy, it is recommended not to discontinue double-blind treatment because these effects are usually transient or manageable with symptomatic treatment. If a dose that cannot be tolerated is reached, the dose should be reduced to the previous dose level.

CC(C)N(CCCCOCC(=O)NS(C)(=O)=O)c1cnc(-c2ccccc2)c(-c2ccccc2)n1 [Selexipag, 2-{4-[(5,6-diphenylpyrazin-2-yl)(propan-2-yl)amino]butoxy}-N-(methanesulfonyl)acetamide]
Individual maintenance dose of double-blind treatment (b.i.d), Mean: 1043.7 µg
Individual maintenance dose of double-blind treatment (b.i.d), Median: 1200.0 µg
Individual maintenance dose of double-blind treatment (b.i.d), Median (listed as selexipag): 1200 µg
